Experimental data: PubChem BioAssay AID743458 (Peter MacCallum Cancer Centre, 2014)
This is a random part of about 1,800 reagents. 732 of all reagents (41%) were called active. 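Calls are per siRNA reagent; a gene was deemed confirmed only if most of its four siRNAs scored.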 Entries without a mark were called inactive. Reagents against one gene are numbered here.

- Test: 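Retest earlier hits with independent siRNAs per gene for restoring vorinostat sensitivity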 (follow-up of hits)
- System: human HCT116-VR colon cancer cells made resistant to vorinostat
- Reagent: single siRNA or pool against human genes, 25 nM per single siRNA
- Duration: about 72 h after transfection, including 24 h of drug
- Treatment: vorinostat, 2.5 µM final, for 24 h
- Measurement: 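Cell viability by fluorescence and apoptosis by caspase 3/7 luminescence under vorinostat, background-corrected, averaged across two plate copies and given as fold change versus mock transfection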
- Direction: viability relative to mock: higher = more living cells than mock; caspase activity relative to mock: higher = more apoptosis than mock
- Hit rule: 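Active means a reduced-viability or caspase-activation class, anything else inactive; classes could only be given to wells that looked healthy when left untreated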

| Target gene | reagent | viability relative to mock | caspase activity relative to mock | viability hit class | caspase hit class |
| --- | --- | --- | --- | --- | --- |
| AVEN (apoptosis and caspase activation inhibitor) | 1 | 0.7 | 1.85 | no change | no change |
| AVEN (apoptosis and caspase activation inhibitor) | 2 | 0.86 | 1.31 | no change | no change |
| AVEN (apoptosis and caspase activation inhibitor) | 3 | 1.08 (active) | 3.25 | no change | caspase activation |
| AVEN (apoptosis and caspase activation inhibitor) | 4 | 0.8 | 1.08 | no change | no change |
| DNER (delta/notch like EGF repeat containing) | 1 | 0.88 | 1.52 | no change | no change |
| DNER (delta/notch like EGF repeat containing) | 2 | 0.88 | 0.92 | no change | no change |
| DNER (delta/notch like EGF repeat containing) | 3 | 0.2 | 3.9 | no change | no change |
| DNER (delta/notch like EGF repeat containing) | 4 | 0.79 | 0.75 | no change | no change |
| TRIM71 (tripartite motif containing 71) | 1 | 0.96 | 1.27 | no change | no change |
| TRIM71 (tripartite motif containing 71) | 2 | 0.9 | 1.66 | no change | no change |
| TRIM71 (tripartite motif containing 71) | 3 | 0.72 | 1.47 | no change | no change |
| TRIM71 (tripartite motif containing 71) | 4 | 0.86 | 0.86 | no change | no change |
| MASP2 (MBL associated serine protease 2) | 1 | 0.73 (active) | 3.04 | no change | caspase activation |
| MASP2 (MBL associated serine protease 2) | 2 | 0.65 (active) | 3.84 | no change | caspase activation |
| MASP2 (MBL associated serine protease 2) | 3 | 0.9 | 2.19 | no change | no change |
| MASP2 (MBL associated serine protease 2) | 4 | 0.6 | 2.95 | no change | no change |
| SPMAP2 (sperm microtubule associated protein 2) | 1 | 0.86 (active) | 3.09 | no change | caspase activation |
| SPMAP2 (sperm microtubule associated protein 2) | 2 | 0.84 | 1.25 | no change | no change |
| SPMAP2 (sperm microtubule associated protein 2) | 3 | 0.79 | 1.67 | no change | no change |
| SPMAP2 (sperm microtubule associated protein 2) | 4 | 0.93 | 1.97 | no change | no change |
| PFKL (phosphofructokinase, liver type) | 1 | 0.78 | 1.48 | no change | no change |
| PFKL (phosphofructokinase, liver type) | 2 | 0.92 | 1.92 | no change | no change |
| PFKL (phosphofructokinase, liver type) | 3 | 0.76 (active) | 5.55 | no change | caspase activation |
| PFKL (phosphofructokinase, liver type) | 4 | 0.82 | 2.31 | no change | no change |

A portion taken from the entries so far:
| Target gene | reagent | viability relative to mock | caspase activity relative to mock | viability hit class | caspase hit class |
| --- | --- | --- | --- | --- | --- |
| TRIM71 (tripartite motif containing 71) | 3 | 0.72 | 1.47 | no change | no change |
| TRIM71 (tripartite motif containing 71) | 4 | 0.86 | 0.86 | no change | no change |
| MASP2 (MBL associated serine protease 2) | 1 | 0.73 (active) | 3.04 | no change | caspase activation |
| MASP2 (MBL associated serine protease 2) | 2 | 0.65 (active) | 3.84 | no change | caspase activation |
| MASP2 (MBL associated serine protease 2) | 3 | 0.9 | 2.19 | no change | no change |
| MASP2 (MBL associated serine protease 2) | 4 | 0.6 | 2.95 | no change | no change |
| SPMAP2 (sperm microtubule associated protein 2) | 1 | 0.86 (active) | 3.09 | no change | caspase activation |
| SPMAP2 (sperm microtubule associated protein 2) | 2 | 0.84 | 1.25 | no change | no change |
| SPMAP2 (sperm microtubule associated protein 2) | 3 | 0.79 | 1.67 | no change | no change |
| SPMAP2 (sperm microtubule associated protein 2) | 4 | 0.93 | 1.97 | no change | no change |

The results go on:
| Target gene | reagent | viability relative to mock | caspase activity relative to mock | viability hit class | caspase hit class |
| --- | --- | --- | --- | --- | --- |
| RBPMS2 (RNA binding protein, mRNA processing factor 2) | 1 | 0.84 | 1.45 | no change | no change |
| RBPMS2 (RNA binding protein, mRNA processing factor 2) | 2 | 1.07 | 1.51 | no change | no change |
| RBPMS2 (RNA binding protein, mRNA processing factor 2) | 3 | 0.4 (active) | 7 | reduced viability | caspase activation |
| RBPMS2 (RNA binding protein, mRNA processing factor 2) | 4 | 0.94 | 1.1 | no change | no change |
| PMS2 (PMS1 homolog 2, mismatch repair system component) | 1 | 1.01 | 1.03 | no change | no change |
| PMS2 (PMS1 homolog 2, mismatch repair system component) | 2 | 0.91 | 0.91 | no change | no change |
| PMS2 (PMS1 homolog 2, mismatch repair system component) | 3 | 0.25 (active) | 2.5 | reduced viability | no change |
| PMS2 (PMS1 homolog 2, mismatch repair system component) | 4 | 0.92 | 0.88 | no change | no change |
| NR1H2 (nuclear receptor subfamily 1 group H member 2) | 1 | 0.56 (active) | 1.85 | reduced viability | no change |
| NR1H2 (nuclear receptor subfamily 1 group H member 2) | 2 | 0.15 (active) | 3.89 | reduced viability | caspase activation |
| NR1H2 (nuclear receptor subfamily 1 group H member 2) | 3 | 1.06 | 1.04 | no change | no change |
| NR1H2 (nuclear receptor subfamily 1 group H member 2) | 4 | 0.64 | 1.71 | no change | no change |
| NR1H2 (nuclear receptor subfamily 1 group H member 2) | 5 | 0.86 (active) | 5.48 | no change | caspase activation |
| COMMD2 (COMM domain containing 2) | 1 | 0.26 (active) | 4.88 | reduced viability | caspase activation |
| COMMD2 (COMM domain containing 2) | 2 | 0.66 | 1.64 | no change | no change |
| COMMD2 (COMM domain containing 2) | 3 | 0.86 | 1.21 | no change | no change |
| COMMD2 (COMM domain containing 2) | 4 | 0.86 | 1.17 | no change | no change |
| BICDL1 (BICD family like cargo adaptor 1) | 1 | 0.66 | 1 | no change | no change |
| BICDL1 (BICD family like cargo adaptor 1) | 2 | 0.34 (active) | 1.13 | reduced viability | no change |
| BICDL1 (BICD family like cargo adaptor 1) | 3 | 0.72 | 2.25 | no change | no change |
| BICDL1 (BICD family like cargo adaptor 1) | 4 | 0.86 | 1.12 | no change | no change |
| ZNF354B (zinc finger protein 354B) | 1 | 0.58 (active) | 3.33 | no change | caspase activation |
| ZNF354B (zinc finger protein 354B) | 2 | 0.72 | 2 | no change | no change |
| ZNF354B (zinc finger protein 354B) | 3 | 1.12 | 0.9 | no change | no change |
| ZNF354B (zinc finger protein 354B) | 4 | 0.42 (active) | 2.66 | reduced viability | caspase activation |
| RNF26 (ring finger protein 26) | 1 | 1.12 | 1.42 | no change | no change |
| RNF26 (ring finger protein 26) | 2 | 0.94 | 1.16 | no change | no change |
| RNF26 (ring finger protein 26) | 3 | 1.08 | 2.09 | no change | no change |
| RNF26 (ring finger protein 26) | 4 | 0.77 | 1.78 | no change | no change |
| NUP133 (nucleoporin 133) | 1 | 0.29 (active) | 5.45 | reduced viability | caspase activation |
| NUP133 (nucleoporin 133) | 2 | 0.76 (active) | 4.45 | no change | caspase activation |
| NUP133 (nucleoporin 133) | 3 | 0.5 (active) | 3.65 | reduced viability | caspase activation |
| NUP133 (nucleoporin 133) | 4 | 0.64 (active) | 4 | no change | caspase activation |
| RNF215 (ring finger protein 215) | 1 | 0.81 | 2.16 | no change | no change |
| RNF215 (ring finger protein 215) | 2 | 0.88 (active) | 2.79 | no change | caspase activation |
| RNF215 (ring finger protein 215) | 3 | 0.54 (active) | 2.62 | reduced viability | caspase activation |
| RNF215 (ring finger protein 215) | 4 | 1.05 | 1.08 | no change | no change |
| HLA-DQA2 (major histocompatibility complex, class II, DQ alpha 2) | 1 | 0.86 (active) | 3.68 | no change | caspase activation |
| HLA-DQA2 (major histocompatibility complex, class II, DQ alpha 2) | 2 | 0.59 | 2.46 | no change | no change |
| HLA-DQA2 (major histocompatibility complex, class II, DQ alpha 2) | 3 | 0.89 | 1.5 | no change | no change |
| HLA-DQA2 (major histocompatibility complex, class II, DQ alpha 2) | 4 | 0.92 | 1.79 | no change | no change |
| ZFP64 (ZFP64 zinc finger protein) | 1 | 0.76 (active) | 8.01 | no change | caspase activation |
| ZFP64 (ZFP64 zinc finger protein) | 2 | 0.4 (active) | 0.96 | reduced viability | no change |
| ZFP64 (ZFP64 zinc finger protein) | 3 | 0.48 (active) | 2.81 | reduced viability | caspase activation |
| ZFP64 (ZFP64 zinc finger protein) | 4 | 0.94 | 0.91 | no change | no change |
| LBHD1 (LBH domain containing 1) | 1 | 0.88 (active) | 2.77 | no change | caspase activation |
| LBHD1 (LBH domain containing 1) | 2 | 0.82 | 1.99 | no change | no change |
| LBHD1 (LBH domain containing 1) | 3 | 0.82 (active) | 3.09 | no change | caspase activation |
| LBHD1 (LBH domain containing 1) | 4 | 0.67 (active) | 2.67 | no change | caspase activation |
